Test results as given in publication PMC10228019.
No constants are given. Whether binding was seen depends on the method and setting. In cells and extracts the contact can be indirect. A yes stands for co-enrichment or nearness to the bait. Other partners may have been found.

Chains of the proteins cited; added tags and fusions are not shown.
UniProt Q9Y3S2: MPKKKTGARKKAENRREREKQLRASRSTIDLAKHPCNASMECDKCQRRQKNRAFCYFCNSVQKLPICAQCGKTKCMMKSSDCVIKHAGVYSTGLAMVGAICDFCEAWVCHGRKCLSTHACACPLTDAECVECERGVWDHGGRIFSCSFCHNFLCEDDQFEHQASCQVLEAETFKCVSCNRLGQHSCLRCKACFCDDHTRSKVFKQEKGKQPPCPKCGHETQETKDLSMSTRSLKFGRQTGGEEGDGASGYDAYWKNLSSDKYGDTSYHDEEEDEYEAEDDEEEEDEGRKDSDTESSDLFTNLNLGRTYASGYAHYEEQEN
UniProt P68104: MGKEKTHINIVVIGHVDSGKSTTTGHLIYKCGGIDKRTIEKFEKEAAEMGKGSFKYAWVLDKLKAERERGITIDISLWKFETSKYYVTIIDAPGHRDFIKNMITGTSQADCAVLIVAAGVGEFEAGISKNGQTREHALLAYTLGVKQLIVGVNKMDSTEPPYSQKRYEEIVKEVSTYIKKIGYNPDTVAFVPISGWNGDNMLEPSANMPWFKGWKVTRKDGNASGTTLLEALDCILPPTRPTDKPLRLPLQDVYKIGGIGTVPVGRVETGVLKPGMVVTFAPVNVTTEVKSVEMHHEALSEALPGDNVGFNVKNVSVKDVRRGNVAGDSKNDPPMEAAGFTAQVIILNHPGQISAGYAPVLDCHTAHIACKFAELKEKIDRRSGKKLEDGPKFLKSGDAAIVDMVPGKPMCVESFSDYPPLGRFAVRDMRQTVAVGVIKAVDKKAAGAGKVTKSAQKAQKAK
UniProt O14744: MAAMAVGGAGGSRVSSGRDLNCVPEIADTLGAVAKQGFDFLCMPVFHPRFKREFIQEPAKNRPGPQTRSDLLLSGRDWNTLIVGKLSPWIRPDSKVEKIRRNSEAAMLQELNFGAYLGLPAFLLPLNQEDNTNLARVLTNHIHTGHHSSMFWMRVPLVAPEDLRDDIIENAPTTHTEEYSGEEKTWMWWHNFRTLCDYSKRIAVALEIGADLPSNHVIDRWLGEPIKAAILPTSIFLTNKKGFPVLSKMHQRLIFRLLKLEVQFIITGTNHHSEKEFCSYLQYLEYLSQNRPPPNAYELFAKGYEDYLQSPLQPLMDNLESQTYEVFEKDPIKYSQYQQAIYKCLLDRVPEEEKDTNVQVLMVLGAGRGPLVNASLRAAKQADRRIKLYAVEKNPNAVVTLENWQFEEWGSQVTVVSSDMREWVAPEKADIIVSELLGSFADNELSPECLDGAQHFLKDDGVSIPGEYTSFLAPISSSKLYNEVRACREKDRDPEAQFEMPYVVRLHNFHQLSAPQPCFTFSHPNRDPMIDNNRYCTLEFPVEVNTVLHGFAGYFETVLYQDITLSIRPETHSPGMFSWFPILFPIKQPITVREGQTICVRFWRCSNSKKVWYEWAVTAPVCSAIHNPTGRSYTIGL
UniProt P16403: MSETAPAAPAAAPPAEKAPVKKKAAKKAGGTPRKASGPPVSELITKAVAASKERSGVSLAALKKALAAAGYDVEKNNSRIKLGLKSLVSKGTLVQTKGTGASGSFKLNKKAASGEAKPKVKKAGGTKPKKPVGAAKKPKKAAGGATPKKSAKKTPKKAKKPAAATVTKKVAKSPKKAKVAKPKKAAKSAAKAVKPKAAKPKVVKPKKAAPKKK

Each substance was assayed against FLAG-NOA36 (ZNF330/NOA36, Zinc Finger protein 330), expressed in HeLa cells (human) (UniProt Q9Y3S2) (assay: affinity purification with mass spectrometry; HeLa cells transfected with FLAG-NOA36 or the empty FLAG vector; lysis in 0.5% NP40, 150 mM NaCl, 10 mM Tris pH 7.5, 0.5 mM EDTA; anti-FLAG M2 magnetic beads; elution with 0.2 M glycine HCl pH 3.0; LC-MS; proteins common to the empty vector sample discarded).

| binding | Substance |
| --- | --- |
| binds | Elongation factor 1-α-1 (from UniProt P68104 1-462) |
| binds | HSPA8 (endogenous, HeLa) (from UniProt P11142-1 1-646) |
| binds | Protein arginine N-methyltransferase 5 (from UniProt O14744 1-637) (enzyme) |
| binds | histone H1.2 (from UniProt P16403 1-213) |
